Data from the supplement of paper PMC10849652.
Some of the results follow.

Amino acid sequences for entries named in this document (tags omitted). A change or cut given only in a name is not applied to a line headed by its entry.
UniProt Q8N9U0: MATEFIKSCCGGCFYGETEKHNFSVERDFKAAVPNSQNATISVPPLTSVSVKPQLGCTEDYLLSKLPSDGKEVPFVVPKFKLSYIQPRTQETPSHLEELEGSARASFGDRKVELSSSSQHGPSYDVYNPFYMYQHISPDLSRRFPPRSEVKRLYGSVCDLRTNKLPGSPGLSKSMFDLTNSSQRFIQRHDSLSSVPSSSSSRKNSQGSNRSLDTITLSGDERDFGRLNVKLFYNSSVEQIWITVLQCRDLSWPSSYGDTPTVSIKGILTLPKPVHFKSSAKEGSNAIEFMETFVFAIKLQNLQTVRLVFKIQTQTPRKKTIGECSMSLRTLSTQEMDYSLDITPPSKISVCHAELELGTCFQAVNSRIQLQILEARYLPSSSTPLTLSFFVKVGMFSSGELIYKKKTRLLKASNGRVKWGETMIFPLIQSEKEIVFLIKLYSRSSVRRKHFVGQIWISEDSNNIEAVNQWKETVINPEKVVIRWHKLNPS
UniProt Q9Y4I5: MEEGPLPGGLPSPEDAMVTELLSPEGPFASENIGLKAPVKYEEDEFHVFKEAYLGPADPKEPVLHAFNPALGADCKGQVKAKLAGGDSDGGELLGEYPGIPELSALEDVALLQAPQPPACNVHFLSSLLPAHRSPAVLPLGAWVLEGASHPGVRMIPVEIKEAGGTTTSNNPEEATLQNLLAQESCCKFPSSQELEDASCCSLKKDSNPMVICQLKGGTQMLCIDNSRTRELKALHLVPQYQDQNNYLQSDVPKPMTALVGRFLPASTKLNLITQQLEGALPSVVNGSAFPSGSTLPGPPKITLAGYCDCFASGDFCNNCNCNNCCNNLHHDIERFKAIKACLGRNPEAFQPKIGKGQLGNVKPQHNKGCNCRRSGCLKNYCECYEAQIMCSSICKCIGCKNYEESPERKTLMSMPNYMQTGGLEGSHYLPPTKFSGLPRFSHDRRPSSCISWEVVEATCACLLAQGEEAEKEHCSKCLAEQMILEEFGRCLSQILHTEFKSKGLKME
UniProt Q6NUS6: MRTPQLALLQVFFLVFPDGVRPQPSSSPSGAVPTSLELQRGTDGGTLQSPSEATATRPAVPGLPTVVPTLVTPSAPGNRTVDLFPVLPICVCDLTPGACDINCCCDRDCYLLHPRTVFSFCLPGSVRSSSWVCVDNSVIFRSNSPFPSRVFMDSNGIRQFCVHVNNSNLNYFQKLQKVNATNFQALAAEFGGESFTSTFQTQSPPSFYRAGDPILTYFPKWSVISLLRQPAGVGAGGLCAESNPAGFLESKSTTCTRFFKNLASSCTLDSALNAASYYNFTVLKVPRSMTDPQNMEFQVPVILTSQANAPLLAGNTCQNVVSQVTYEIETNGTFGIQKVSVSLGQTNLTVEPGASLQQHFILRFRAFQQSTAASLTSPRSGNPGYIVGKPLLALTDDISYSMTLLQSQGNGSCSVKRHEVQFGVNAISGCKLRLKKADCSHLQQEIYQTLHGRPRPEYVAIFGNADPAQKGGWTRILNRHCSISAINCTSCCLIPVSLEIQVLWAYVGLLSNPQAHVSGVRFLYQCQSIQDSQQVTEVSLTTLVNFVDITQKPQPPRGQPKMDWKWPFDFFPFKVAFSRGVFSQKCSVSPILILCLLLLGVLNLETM
UniProt Q7L2K0: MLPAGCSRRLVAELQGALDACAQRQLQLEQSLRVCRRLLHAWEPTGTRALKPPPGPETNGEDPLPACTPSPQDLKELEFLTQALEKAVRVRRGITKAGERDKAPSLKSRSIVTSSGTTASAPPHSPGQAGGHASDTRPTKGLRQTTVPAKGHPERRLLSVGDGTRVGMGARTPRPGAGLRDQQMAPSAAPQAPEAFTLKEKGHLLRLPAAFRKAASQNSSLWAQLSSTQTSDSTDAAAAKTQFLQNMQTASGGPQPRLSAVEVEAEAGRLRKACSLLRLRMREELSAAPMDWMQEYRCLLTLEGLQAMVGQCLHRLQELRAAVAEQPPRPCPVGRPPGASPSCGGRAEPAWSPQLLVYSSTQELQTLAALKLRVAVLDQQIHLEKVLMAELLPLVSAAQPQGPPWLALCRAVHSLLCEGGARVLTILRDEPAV
UniProt P42680: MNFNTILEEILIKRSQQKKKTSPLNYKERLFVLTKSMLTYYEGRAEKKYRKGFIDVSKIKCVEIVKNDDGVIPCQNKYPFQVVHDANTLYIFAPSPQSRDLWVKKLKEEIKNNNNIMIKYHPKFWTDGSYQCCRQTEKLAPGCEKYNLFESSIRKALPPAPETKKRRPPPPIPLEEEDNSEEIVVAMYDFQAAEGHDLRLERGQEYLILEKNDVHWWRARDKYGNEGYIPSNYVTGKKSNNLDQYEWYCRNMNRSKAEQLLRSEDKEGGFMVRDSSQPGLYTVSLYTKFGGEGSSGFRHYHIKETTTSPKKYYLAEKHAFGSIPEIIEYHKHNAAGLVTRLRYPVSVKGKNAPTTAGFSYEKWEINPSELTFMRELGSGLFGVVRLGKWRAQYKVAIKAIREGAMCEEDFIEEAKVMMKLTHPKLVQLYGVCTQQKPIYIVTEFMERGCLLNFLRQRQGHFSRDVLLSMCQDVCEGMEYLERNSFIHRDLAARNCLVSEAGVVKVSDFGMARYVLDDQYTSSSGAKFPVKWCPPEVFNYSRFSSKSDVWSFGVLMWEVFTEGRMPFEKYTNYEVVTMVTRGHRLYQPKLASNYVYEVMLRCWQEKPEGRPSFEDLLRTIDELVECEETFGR
UniProt Q86SX3: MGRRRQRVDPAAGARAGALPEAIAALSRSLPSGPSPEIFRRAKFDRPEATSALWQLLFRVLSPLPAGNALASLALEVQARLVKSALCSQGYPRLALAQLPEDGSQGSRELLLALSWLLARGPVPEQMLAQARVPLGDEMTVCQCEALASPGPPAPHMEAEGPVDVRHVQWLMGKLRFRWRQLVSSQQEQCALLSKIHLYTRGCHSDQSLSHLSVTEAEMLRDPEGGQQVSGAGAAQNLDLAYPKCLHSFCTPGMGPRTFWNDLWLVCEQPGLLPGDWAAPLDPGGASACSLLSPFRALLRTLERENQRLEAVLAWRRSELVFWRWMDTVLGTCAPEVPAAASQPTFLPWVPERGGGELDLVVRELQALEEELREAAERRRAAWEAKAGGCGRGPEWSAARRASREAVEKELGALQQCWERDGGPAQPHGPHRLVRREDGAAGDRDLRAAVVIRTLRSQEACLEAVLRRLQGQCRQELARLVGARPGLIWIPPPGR
UniProt Q86WV5: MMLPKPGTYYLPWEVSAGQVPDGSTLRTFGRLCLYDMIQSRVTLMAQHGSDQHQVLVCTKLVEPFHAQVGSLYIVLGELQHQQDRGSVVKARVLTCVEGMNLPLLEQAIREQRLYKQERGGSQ
UniProt O60347: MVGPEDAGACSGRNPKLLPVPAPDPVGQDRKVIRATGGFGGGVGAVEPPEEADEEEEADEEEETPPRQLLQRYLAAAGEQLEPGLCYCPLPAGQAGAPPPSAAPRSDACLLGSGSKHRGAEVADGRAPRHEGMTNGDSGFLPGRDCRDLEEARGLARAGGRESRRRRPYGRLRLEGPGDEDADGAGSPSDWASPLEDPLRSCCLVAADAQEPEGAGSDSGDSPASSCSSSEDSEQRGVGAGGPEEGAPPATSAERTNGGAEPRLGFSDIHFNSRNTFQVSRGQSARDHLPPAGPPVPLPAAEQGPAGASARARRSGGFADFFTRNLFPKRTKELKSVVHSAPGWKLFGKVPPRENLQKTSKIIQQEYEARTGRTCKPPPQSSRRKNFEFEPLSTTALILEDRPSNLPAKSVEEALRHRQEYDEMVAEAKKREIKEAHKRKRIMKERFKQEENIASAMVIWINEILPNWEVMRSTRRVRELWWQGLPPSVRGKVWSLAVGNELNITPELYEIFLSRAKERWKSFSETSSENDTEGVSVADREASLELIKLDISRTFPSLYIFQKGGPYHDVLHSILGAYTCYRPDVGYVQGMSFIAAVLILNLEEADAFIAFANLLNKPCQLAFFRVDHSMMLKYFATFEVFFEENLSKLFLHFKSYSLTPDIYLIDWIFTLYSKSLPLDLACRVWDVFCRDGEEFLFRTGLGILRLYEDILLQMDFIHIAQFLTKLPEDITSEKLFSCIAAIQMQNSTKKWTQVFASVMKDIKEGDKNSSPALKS
UniProt Q15562, whole entry, looked up: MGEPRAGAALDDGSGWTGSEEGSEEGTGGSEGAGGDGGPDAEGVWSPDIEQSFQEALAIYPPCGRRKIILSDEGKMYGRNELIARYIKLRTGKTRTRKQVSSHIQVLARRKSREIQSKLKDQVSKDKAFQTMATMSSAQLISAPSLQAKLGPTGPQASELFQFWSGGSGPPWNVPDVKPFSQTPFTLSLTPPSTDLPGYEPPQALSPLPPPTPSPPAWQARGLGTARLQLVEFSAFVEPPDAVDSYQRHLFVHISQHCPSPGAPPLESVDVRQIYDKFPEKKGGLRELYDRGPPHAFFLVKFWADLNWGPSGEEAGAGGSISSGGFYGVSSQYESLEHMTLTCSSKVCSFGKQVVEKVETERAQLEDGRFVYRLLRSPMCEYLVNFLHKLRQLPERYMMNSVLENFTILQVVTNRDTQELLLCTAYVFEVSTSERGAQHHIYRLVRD
UniProt Q99594, whole entry, looked up: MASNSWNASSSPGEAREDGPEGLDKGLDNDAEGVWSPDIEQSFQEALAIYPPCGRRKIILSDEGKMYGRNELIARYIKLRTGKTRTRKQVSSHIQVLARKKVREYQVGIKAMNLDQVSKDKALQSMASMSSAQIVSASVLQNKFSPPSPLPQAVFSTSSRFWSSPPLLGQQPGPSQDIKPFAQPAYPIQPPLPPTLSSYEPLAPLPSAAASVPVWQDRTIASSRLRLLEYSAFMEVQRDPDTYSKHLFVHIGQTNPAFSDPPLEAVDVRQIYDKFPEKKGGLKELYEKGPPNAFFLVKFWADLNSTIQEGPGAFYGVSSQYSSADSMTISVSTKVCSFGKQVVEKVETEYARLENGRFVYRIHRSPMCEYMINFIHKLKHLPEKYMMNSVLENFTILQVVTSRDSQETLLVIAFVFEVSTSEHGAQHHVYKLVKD
UniProt Q15560: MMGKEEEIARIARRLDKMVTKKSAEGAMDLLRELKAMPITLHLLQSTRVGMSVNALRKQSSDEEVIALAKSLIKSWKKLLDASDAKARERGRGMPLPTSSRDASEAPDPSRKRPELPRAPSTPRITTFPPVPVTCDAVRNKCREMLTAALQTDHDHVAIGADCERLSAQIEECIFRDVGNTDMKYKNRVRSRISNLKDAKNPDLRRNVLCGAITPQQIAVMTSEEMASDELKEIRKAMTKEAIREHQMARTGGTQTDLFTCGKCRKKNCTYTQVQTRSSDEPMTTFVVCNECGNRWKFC
UniProt Q8N4U5: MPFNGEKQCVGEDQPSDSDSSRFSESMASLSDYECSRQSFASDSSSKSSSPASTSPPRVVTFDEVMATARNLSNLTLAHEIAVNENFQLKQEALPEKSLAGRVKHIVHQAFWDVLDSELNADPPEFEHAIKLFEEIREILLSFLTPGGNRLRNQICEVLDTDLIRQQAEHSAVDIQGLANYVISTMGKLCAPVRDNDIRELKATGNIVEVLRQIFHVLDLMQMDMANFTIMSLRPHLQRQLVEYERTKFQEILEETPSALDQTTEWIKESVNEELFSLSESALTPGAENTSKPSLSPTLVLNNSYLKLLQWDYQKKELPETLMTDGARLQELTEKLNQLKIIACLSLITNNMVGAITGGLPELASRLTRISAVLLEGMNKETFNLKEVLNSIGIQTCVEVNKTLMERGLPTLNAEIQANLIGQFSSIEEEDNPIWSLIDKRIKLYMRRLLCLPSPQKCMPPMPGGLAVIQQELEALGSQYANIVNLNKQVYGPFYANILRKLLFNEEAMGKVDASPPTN

What was measured:
Test in all cases: log2 fold change, soluble protein after heating vs DMSO (PISA); higher = thermal stabilisation; K562 lysate, 10 uM; active = over 0.2 and 3.5 SD of the protein, either way, in both replicates (recomputed)
[1] = compound: CCCS(=O)(=O)Nc1ccc(F)c(C(=O)c2c[nH]c3ncc(-c4ccc(Cl)cc4)cc23)c1F [vemurafenib]
Procedure, shortened: (§1)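 Log-two fold change in thermal stability relative to solvent controls is reported from duplicates. For each sample, crude K562 extract from dounce-homogenised pellets in PBS pH 7.4 with 1 mM MgCl2, at 1 mg/mL protein, was treated with 10 μM compound for 30 min. Aliquots heated for 3 min across 48°C-58°C were pooled, brought to 0.5% NP-40 at 4°C and cleared at 21,000xg for 90 min. The supernatant was quantified by TMTpro 16plex LC-MS/MS with channel sums equalised.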

[2] = compound: CC[C@@H]1C(=O)N(C)c2cnc(Nc3ccc(C(=O)NC4CCN(C)CC4)cc3OC)nc2N1C1CCCC1
Procedure, shortened: as §1

[3] = compound: CCn1cc(-c2ccnc3[nH]c(-c4cccc(CN(C)C)c4)cc23)c(-c2ccc(NC(=O)N(C)C)cc2)n1
Procedure, shortened: as §1

[4] = compound: CN1CCC(CNc2ccc3ncc(-c4cccc(OC(F)(F)F)c4)n3n2)CC1
Procedure, shortened: as §1

[5] = compound: CC(C)(C)Cn1c(N)nc2ccc(-c3[nH]c(C(C)(C)C)nc3-c3ccc(F)cc3)nc21 [ralimetinib]
Procedure, shortened: as §1

[6] = compound: CC(C)(O)CC(=O)NCCn1ccc2ncnc(Nc3ccc(Oc4cccc(C(F)(F)F)c4)c(Cl)c3)c21
Procedure, shortened: as §1

[7] = compound: CC(C)C1=C2N=C(C=C(N2N=C1)NCC3=CC=CC=C3)NCCCCCCN
Procedure, shortened: as §1

[8] = compound: CC1=C(C2=C(C=C1)C(=O)C3=CC=CC=C3N2CCCN)C
Procedure, shortened: as §1

[9] = compound: CC1=C(C=C(C=C1)NC(=O)C2=CC(=CC=C2)C(C)(C)C#N)NC3=CC4=C(C=C3)N=CN(C4=O)C
Procedure, shortened: as §1

[10] = compound: CC1=C(C=C(C=C1)NC(=O)C2=CC(=CC=C2)N(C)C)NC(=O)C3=CC=C(C=C3)O
Procedure, shortened: as §1

[11] = compound: CCn1c(C(=O)N(C2CC2)C2CC2)cc2c3c(ncn3C)c(Nc3cc(C)n(C)n3)nc21
Procedure, shortened: as §1

[12] = compound: CN1CCN(CCOc2cc(OC3CCOCC3)c3c(Nc4c(Cl)ccc5c4OCO5)ncnc3c2)CC1 [saracatinib]
Procedure, shortened: as §1

[13] = compound: CN1CCN(c2nc(C3=C(c4c[nH]c5ccccc45)C(=O)NC3=O)c3ccccc3n2)CC1 [sotrastaurin]
Procedure, shortened: as §1

[14] = compound: CC1=C(C(CC(=O)N1)C2=CC=C(C=C2)C(F)(F)F)C(=O)NC3=C(C=C4C(=C3)C=NN4)F
Procedure, shortened: as §1

[15] = compound: CC(=O)c1cnc2ccc(-c3cc(Cl)c(O)c(Cl)c3)nc2c1N[C@H]1CC[C@H](CN(C)C)CC1
Procedure, shortened: as §1

[16] = compound: CC1=CC=C(C=C1)SC2=C3C=C(SC3=CN=C2)C(=O)N
Procedure, shortened: as §1

[17] = compound: CCCS(=O)(=O)Nc1ccc(F)c(C(=O)c2c[nH]c3ncc(Cl)cc23)c1F
Procedure, shortened: as §1

[18] = compound: CC[C@@H]1C(=O)N(C)c2cnc(Nc3ccc(C(=O)N[C@H]4CC[C@H](N5CCN(CC6CC6)CC5)CC4)cc3OC)nc2N1C(C)C [volasertib]
Procedure, shortened: as §1

Measured: log2 fold change

TC2N (UniProt Q8N9U0)
inactive: [1] 0.187 | [2] 0.207 | [3] -0.11 | [4] 0.021

TESMIN (UniProt Q9Y4I5)
inactive: [5] 0.038 | [6] 0.108 | [7] 0.062 | [8] 0.123 | [9] -0.021 | [10] 0.003 | [1] -0.195 | [2] 0.133 | [11] 0.034 | [3] -0.282 | [4] 0 | [12] -0.041 | [13] -0.02

TCTN3 (UniProt Q6NUS6)
inactive: [14] 0.039 | [9] -0.214 | [3] -0.046 | [4] 0.076 | [13] 0.117

TEDC2 (UniProt Q7L2K0)
inactive: [15] 0 | [14] 0.041 | [9] 0.009 | [16] 0.034 | [17] 0.109 | [18] 0.151 | [3] 0.018 | [4] -0.033 | [13] -0.039

TBCA (UniProt E5RHG6)
inactive: [5] 0.146 | [6] -0.224 | [7] 0.144 | [9] 0.001 | [10] 0.088 | [11] -0.187 | [13] 0.09

TEC (UniProt P42680)
inactive: [15] -0.096 | [14] -0.023 | [16] 0.143 | [1] -0.081 | [17] -0.119 | [2] -0.054 | [18] 0.14

TEDC1 (UniProt Q86SX3)
inactive: [15] -0.023 | [5] -0.049 | [6] -0.001 | [7] -0.066 | [14] 0 | [8] -0.033 | [9] -0.018 | [10] 0.082 | [16] -0.024 | [17] 0.103 | [2] 0.106 | [18] -0.041 | [11] 0.019 | [12] -0.02 | [13] -0.037

TEN1 (UniProt Q86WV5)
inactive: [14] 0.203

Retrieved one by one from the entries so far, 2 records:
TC2N (UniProt Q8N9U0)
inactive: [1] 0.187 | [2] 0.207 | [3] -0.11 | [4] 0.021

TESMIN (UniProt Q9Y4I5)
inactive: [5] 0.038 | [6] 0.108 | [7] 0.062 | [8] 0.123 | [9] -0.021 | [10] 0.003 | [1] -0.195 | [2] 0.133 | [11] 0.034 | [3] -0.282 | [4] 0 | [12] -0.041 | [13] -0.02

The list goes on.

TBC1D12 (UniProt O60347)
inactive: [15] -0.223 | [5] 0.064 | [6] -0.164 | [7] -0.015 | [8] -0.15 | [9] 0.042 | [10] 0.011 | [16] 0.155 | [1] -0.047 | [17] 0.045 | [2] -0.086 | [18] 0.014 | [11] -0.031 | [3] -0.04 | [4] 0.012 | [12] -0.052 | [13] -0.062

TEAD2 isoform 4 (UniProt Q15562)
inactive: [7] 0.167 | [8] -0.188 | [1] 0.158 | [12] 0.04

TARDBP (UniProt K7EN94)
inactive: [1] 0.008 | [2] -0.039

TEAD3 (UniProt Q99594)
inactive: [5] 0.042 | [6] -0.226 | [7] -0.144 | [8] -0.032 | [9] 0.055 | [10] -0.015 | [2] -0.249 | [11] -0.018 | [12] 0.08 | [13] -0.009

TCEA2 (UniProt Q15560)
inactive: [5] 0.14 | [6] 0.026 | [10] 0.189 | [2] -0.032 | [11] 0.131

TCP11L2 (UniProt Q8N4U5)
inactive: [5] -0.028 | [6] 0.131 | [7] 0.006 | [10] 0.249 | [1] -0.164 | [2] 0.055 | [11] 0.034 | [3] -0.14 | [4] 0.131
